Experimental data taken from article PMC6071317 (European journal of medicinal chemistry, 2017).

Sequences of proteins named here, by UniProt entry; tags and fusion partners are left off. Residues count along the entry.
UniProt P14867, 28-456: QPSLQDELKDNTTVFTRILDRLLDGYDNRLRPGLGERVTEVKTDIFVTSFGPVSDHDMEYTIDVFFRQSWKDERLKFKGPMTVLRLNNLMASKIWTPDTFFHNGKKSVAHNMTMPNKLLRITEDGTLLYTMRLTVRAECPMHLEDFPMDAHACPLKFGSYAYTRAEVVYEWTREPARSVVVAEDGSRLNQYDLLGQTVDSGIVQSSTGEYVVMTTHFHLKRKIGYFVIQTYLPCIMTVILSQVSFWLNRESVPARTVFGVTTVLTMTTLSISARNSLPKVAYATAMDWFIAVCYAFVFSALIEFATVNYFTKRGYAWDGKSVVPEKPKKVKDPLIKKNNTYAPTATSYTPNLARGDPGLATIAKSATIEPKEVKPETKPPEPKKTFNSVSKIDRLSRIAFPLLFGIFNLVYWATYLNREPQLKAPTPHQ
UniProt P28472, 26-473: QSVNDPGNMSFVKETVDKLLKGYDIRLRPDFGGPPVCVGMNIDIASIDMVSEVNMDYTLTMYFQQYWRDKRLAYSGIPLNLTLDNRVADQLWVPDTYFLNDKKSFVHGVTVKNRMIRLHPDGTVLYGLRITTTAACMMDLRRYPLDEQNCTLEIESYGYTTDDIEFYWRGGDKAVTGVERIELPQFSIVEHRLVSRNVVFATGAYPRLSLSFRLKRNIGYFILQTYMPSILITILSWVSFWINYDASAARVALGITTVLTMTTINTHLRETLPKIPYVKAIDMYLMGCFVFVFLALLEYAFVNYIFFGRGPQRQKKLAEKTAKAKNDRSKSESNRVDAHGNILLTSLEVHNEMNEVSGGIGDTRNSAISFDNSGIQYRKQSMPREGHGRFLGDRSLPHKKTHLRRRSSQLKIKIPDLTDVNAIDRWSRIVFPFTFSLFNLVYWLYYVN

Target: human α1β3γ2 GABAA receptors (Homo sapiens, UniProt P14867+P28472)
Assay: Modulation of [3H]muscimol binding to GABAA receptor membranes from HEK293 cells
Conditions: 2 nM [3H]muscimol

## CC(=O)[C@H]1CC[C@H]2[C@@H]3CC[C@H]4C[C@H](O)CC[C@]4(C)[C@H]3C(=O)C[C@]12C [alphaxalone, Alphaxalone, reference compound]
  Efficacy of modulation of [3H]muscimol binding: 235 ± 2%
  Hill coefficient of enhancement of [3H]muscimol binding: 1.0 ± 0.1
